Earlier results, collected in patent US20220235073A1, “ARTEMISININ-DERIVATIVE N-HETEROCYCLIC CARBENE GOLD(I) HYBRID COMPLEXES” (CENTRE NATIONAL DE LA RECHERCHE SCIENTIFIQUE, priority 2019, published 2022).

System: HepG-2 cell line
Conditions: literature value (BMC Cancer 2012, 12, 402); cited from earlier work

Question: With CNC(=O)c1cc(Oc2ccc(NC(=O)Nc3ccc(Cl)c(C(F)(F)F)c3)cc2)ccn1 [Sorafenib] as the molecule, how does the IC50 read?
Answer: 6.4 µM
